No constants are given. Whether binding was seen depends on the method and setting. A result given as binding can be weak or reduced; the word gives no strength.
Target: microtubule polymers (alpha/beta tubulin)
Assay: co-sedimentation

binding: binds
B1: Smc5 hinge domain (residues 215 to 885) (domain or fragment, UniProt Q08204 215-885)
chain: LRELQGNEQSLQKDLDFKKAKIVHLRQESDKLRKSVESLRDFQNKKGEIELHSQLLPYVKVKDHKEKLNIYKEEYERAKANLRAILKDKKPFANTKKTLENQVEELTEKCSLKTDEFLKAKEKINEIFEKLNTIRDEVIKKKNQNEYYRGRTKKLQATIISTKEDFLRSQEILAQTHLPEKSVFEDIDIKRKEIINKEGEIRDLISEIDAKANAINHEMRSIQRQAESKTKSLTTTDKIGILNQDQDLKEVRDAVLMVREHPEMKDKILEPPIMTVSAINAQFAAYLAQCVDYNTSKALTVVDSDSYKLFANPILDKFKVNLRELSSADTTPPVPAETVRDLGFEGYLSDFITGDKRVMKMLCQTSKIHTIPVSRRELTPAQIKKLITPRPNGKILFKRIIHGNRLVDIKQSAYGSKQVFPTDVSIKQTNFYQGSIMSNEQKIRIENEIINLKNEYNDRKSTLDALSNQKSGYRHELSELASKNDDINREAHQLNEIRKKYTMRKSTIETLREKLDQLKREARKDVSQKIKDIDDQIQQLLLKQRHLLSKMASSMKSLKNCQKELISTQILQFEAQNMDVSMNDVIGFFNEREADLKSQYEDKKKFVKEMRDTPEFQSWMREIRSYDQDTKEKLNKVAEKYEEEGNFNLSFVQDVLDKLESEIAMVNHDES
